This series is described as follows: Isothermal titration calorimetry (ITC) of Gln binding to GlnBP variants and swArMs. The conditions noted are these: PBS buffer pH 7.4, 37 °C. For orientation: In ITC the heat of successive injections is recorded.

B1: [Dy(DOTA-malN)]72-A126D: swArM: Dy(DOTA-mal^N) on T72C/A126D double variant of GlnBP (conjugate, UniProt P0AEQ3 23-248, looked up, variant T72C A126D)
Glutamine-binding periplasmic …: ADKKLVVATDTAFVPFEFKQGDKYVGFDVDLWAAIAKELKLDYELKPMDFSGIIPALQTKNVDLALAGITICDERKKAIDFSDGYYKSGLLVMVKANNNDVKSVKDLDGKVVAVKSGTGSVDYAKDNIKTKDLRQFPNIDNAYMELGTNRADAVLHDTPNILYFIKTAGNGQFKAVGDSLEAQQYGIAFPKGSDELRDKVNGALKTLRENGTYNEIYKKWFGTEPK
modifications: Dy(DOTA-malN) at Cys72
notes: swArM: Dy(DOTA-mal^N) on T72C/A126D double variant of GlnBP
Take B1: the “n (ITC binding stoichiometry)” value stood at 0.97.

B2: [Dy(DOTA-mal^N)]72-A126Y: swArM: Dy(DOTA-mal^N) on T72C/A126Y double variant of GlnBP (conjugate, UniProt P0AEQ3 23-248, looked up, variant T72C A126Y)
Glutamine-binding periplasmic …: ADKKLVVATDTAFVPFEFKQGDKYVGFDVDLWAAIAKELKLDYELKPMDFSGIIPALQTKNVDLALAGITICDERKKAIDFSDGYYKSGLLVMVKANNNDVKSVKDLDGKVVAVKSGTGSVDYAKYNIKTKDLRQFPNIDNAYMELGTNRADAVLHDTPNILYFIKTAGNGQFKAVGDSLEAQQYGIAFPKGSDELRDKVNGALKTLRENGTYNEIYKKWFGTEPK
modifications: Dy(DOTA-malN) at Cys72
notes: swArM: Dy(DOTA-mal^N) on T72C/A126Y double variant of GlnBP
For the molecule B2, the “n (ITC binding stoichiometry)” value turned out to be 0.89, the “ΔH of Gln dissociation” value is reported as -52 kJ/mol and the “ΔS of Gln dissociation” value is reported as -63 J/mol⋅K.

B3: T72C-A126Y: T72C/A126Y double variant of GlnBP, unconjugated (protein, UniProt P0AEQ3 23-248, looked up, variant T72C A126Y)
Glutamine-binding periplasmic …: ADKKLVVATDTAFVPFEFKQGDKYVGFDVDLWAAIAKELKLDYELKPMDFSGIIPALQTKNVDLALAGITICDERKKAIDFSDGYYKSGLLVMVKANNNDVKSVKDLDGKVVAVKSGTGSVDYAKYNIKTKDLRQFPNIDNAYMELGTNRADAVLHDTPNILYFIKTAGNGQFKAVGDSLEAQQYGIAFPKGSDELRDKVNGALKTLRENGTYNEIYKKWFGTEPK
Regarding B3, the “n (ITC binding stoichiometry)” value was 1.0, the “ΔH of Gln dissociation” value was -51 kJ/mol and the “ΔS of Gln dissociation” value was -47 J/mol⋅K.

B4: [Dy(DOTA-mal^N)]72-N127Y: swArM: Dy(DOTA-mal^N) on T72C/N127Y double variant of GlnBP (conjugate, UniProt P0AEQ3 23-248, looked up, variant T72C N127Y)
Glutamine-binding periplasmic …: ADKKLVVATDTAFVPFEFKQGDKYVGFDVDLWAAIAKELKLDYELKPMDFSGIIPALQTKNVDLALAGITICDERKKAIDFSDGYYKSGLLVMVKANNNDVKSVKDLDGKVVAVKSGTGSVDYAKAYIKTKDLRQFPNIDNAYMELGTNRADAVLHDTPNILYFIKTAGNGQFKAVGDSLEAQQYGIAFPKGSDELRDKVNGALKTLRENGTYNEIYKKWFGTEPK
modifications: Dy(DOTA-malN) at Cys72
notes: swArM: Dy(DOTA-mal^N) on T72C/N127Y double variant of GlnBP
Take B4: the “n (ITC binding stoichiometry)” value is given as 0.99.

B5: [Gd(DTPA-malN)]72: swArM: Gd complex of maleimide-functionalized DTPA attached at Cys72 of T72C-GlnBP (conjugate, UniProt P0AEQ3 23-248, looked up, variant T72C)
Glutamine-binding periplasmic …: ADKKLVVATDTAFVPFEFKQGDKYVGFDVDLWAAIAKELKLDYELKPMDFSGIIPALQTKNVDLALAGITICDERKKAIDFSDGYYKSGLLVMVKANNNDVKSVKDLDGKVVAVKSGTGSVDYAKANIKTKDLRQFPNIDNAYMELGTNRADAVLHDTPNILYFIKTAGNGQFKAVGDSLEAQQYGIAFPKGSDELRDKVNGALKTLRENGTYNEIYKKWFGTEPK
modifications: Gd(DTPA-mal) at Cys72
notes: swArM: Gd complex of maleimide-functionalized DTPA attached at Cys72 of T72C-GlnBP
In the case of B5, the “n (ITC binding stoichiometry)” value was 1.0.

B6: T72C-A126D: T72C/A126D double variant of GlnBP, unconjugated (protein, UniProt P0AEQ3 23-248, looked up, variant T72C A126D)
Glutamine-binding periplasmic …: ADKKLVVATDTAFVPFEFKQGDKYVGFDVDLWAAIAKELKLDYELKPMDFSGIIPALQTKNVDLALAGITICDERKKAIDFSDGYYKSGLLVMVKANNNDVKSVKDLDGKVVAVKSGTGSVDYAKDNIKTKDLRQFPNIDNAYMELGTNRADAVLHDTPNILYFIKTAGNGQFKAVGDSLEAQQYGIAFPKGSDELRDKVNGALKTLRENGTYNEIYKKWFGTEPK
As for B6, the “n (ITC binding stoichiometry)” value turned out to be 1.1.

B7: [Dy(DOTA-malN)]72-G119R: swArM: Dy(DOTA-mal^N) on T72C/G119R double variant of GlnBP as printed in Table S1 (conjugate, UniProt P0AEQ3 23-248, looked up, variant T72C G119R)
Glutamine-binding periplasmic …: ADKKLVVATDTAFVPFEFKQGDKYVGFDVDLWAAIAKELKLDYELKPMDFSGIIPALQTKNVDLALAGITICDERKKAIDFSDGYYKSGLLVMVKANNNDVKSVKDLDGKVVAVKSGTRSVDYAKANIKTKDLRQFPNIDNAYMELGTNRADAVLHDTPNILYFIKTAGNGQFKAVGDSLEAQQYGIAFPKGSDELRDKVNGALKTLRENGTYNEIYKKWFGTEPK
modifications: Dy(DOTA-malN) at Cys72
On to B7, for which the “n (ITC binding stoichiometry)” value is given as 0.73 and the “ΔS of Gln dissociation” value worked out at 79 J/mol⋅K.

B8: T72C: single-Cys T72C variant of E. coli glutamine-binding protein, unconjugated (protein, UniProt P0AEQ3 23-248, looked up, variant T72C)
Glutamine-binding periplasmic …: ADKKLVVATDTAFVPFEFKQGDKYVGFDVDLWAAIAKELKLDYELKPMDFSGIIPALQTKNVDLALAGITICDERKKAIDFSDGYYKSGLLVMVKANNNDVKSVKDLDGKVVAVKSGTGSVDYAKANIKTKDLRQFPNIDNAYMELGTNRADAVLHDTPNILYFIKTAGNGQFKAVGDSLEAQQYGIAFPKGSDELRDKVNGALKTLRENGTYNEIYKKWFGTEPK
B8: the “n (ITC binding stoichiometry)” value was determined as 0.93 ± 0.01.

B9: [Gd(DOTA-mal^N)]72: swArM: Gd(DOTA-mal^N) metallocofactor covalently attached at Cys72 of T72C E. coli glutamine-binding protein (GlnBP) (conjugate, UniProt P0AEQ3 23-248, looked up, variant T72C)
Glutamine-binding periplasmic …: ADKKLVVATDTAFVPFEFKQGDKYVGFDVDLWAAIAKELKLDYELKPMDFSGIIPALQTKNVDLALAGITICDERKKAIDFSDGYYKSGLLVMVKANNNDVKSVKDLDGKVVAVKSGTGSVDYAKANIKTKDLRQFPNIDNAYMELGTNRADAVLHDTPNILYFIKTAGNGQFKAVGDSLEAQQYGIAFPKGSDELRDKVNGALKTLRENGTYNEIYKKWFGTEPK
modifications: Gd(DOTA-malN) at Cys72
With B9, the “n (ITC binding stoichiometry)” value turned out to be 0.9 ± 0.1.

B10: [Dy(DOTA-malN)]72-Q183Y: swArM: Dy(DOTA-mal^N) on T72C/Q183Y double variant of GlnBP (conjugate, UniProt P0AEQ3 23-248, looked up, variant T72C Q183Y)
Glutamine-binding periplasmic …: ADKKLVVATDTAFVPFEFKQGDKYVGFDVDLWAAIAKELKLDYELKPMDFSGIIPALQTKNVDLALAGITICDERKKAIDFSDGYYKSGLLVMVKANNNDVKSVKDLDGKVVAVKSGTGSVDYAKANIKTKDLRQFPNIDNAYMELGTNRADAVLHDTPNILYFIKTAGNGQFKAVGDSLEAYQYGIAFPKGSDELRDKVNGALKTLRENGTYNEIYKKWFGTEPK
modifications: Dy(DOTA-malN) at Cys72
notes: swArM: Dy(DOTA-mal^N) on T72C/Q183Y double variant of GlnBP
B10: the “n (ITC binding stoichiometry)” value amounted to 0.89.

B11: T72C-Q183Y: T72C/Q183Y double variant of GlnBP, unconjugated (protein, UniProt P0AEQ3 23-248, looked up, variant T72C Q183Y)
Glutamine-binding periplasmic …: ADKKLVVATDTAFVPFEFKQGDKYVGFDVDLWAAIAKELKLDYELKPMDFSGIIPALQTKNVDLALAGITICDERKKAIDFSDGYYKSGLLVMVKANNNDVKSVKDLDGKVVAVKSGTGSVDYAKANIKTKDLRQFPNIDNAYMELGTNRADAVLHDTPNILYFIKTAGNGQFKAVGDSLEAYQYGIAFPKGSDELRDKVNGALKTLRENGTYNEIYKKWFGTEPK
In the case of B11, the “n (ITC binding stoichiometry)” value is on record as 0.85.

B12: T72C-G119R: T72C/G119R double variant of GlnBP, unconjugated (protein, UniProt P0AEQ3 23-248, looked up, variant T72C G119R)
Glutamine-binding periplasmic …: ADKKLVVATDTAFVPFEFKQGDKYVGFDVDLWAAIAKELKLDYELKPMDFSGIIPALQTKNVDLALAGITICDERKKAIDFSDGYYKSGLLVMVKANNNDVKSVKDLDGKVVAVKSGTRSVDYAKANIKTKDLRQFPNIDNAYMELGTNRADAVLHDTPNILYFIKTAGNGQFKAVGDSLEAQQYGIAFPKGSDELRDKVNGALKTLRENGTYNEIYKKWFGTEPK
Consider B12, for which the “n (ITC binding stoichiometry)” value came out at 1.0.
